Test results from publication PMC12481576, “Barbituric Acid Derivatives as Covalent Inhibitors of Leishmania braziliensis Dihydroorotate Dehydrogenase” (Journal of Medicinal Chemistry, 2025).
Read-outs that look alike come from different tables or passages of the source.

Columns and labels:
[1] = mouse liver microsomes, raw LC-MS area; for Raw data: analyte peak area, T=0: 0 min; for Raw data: analyte peak area, T=5: 5 min; for Raw data: analyte peak area, T=10: 10 min; for Raw data: analyte peak area, T=20: 20 min; for Raw data: analyte peak area, T=30: 30 min; for Raw data: analyte peak area, T=60: 60 min
[2] = Mouse liver microsome stability in the absence of cofactors (NCF); details: mouse liver microsomes, 60 min, no cofactor (NCF), raw LC-MS area

CC(C)NCC(O)COc1ccc(CC(N)=O)cc1 (centres unmarked) [Atenolol]
Raw data: analyte peak area, T=0 ([1]; replicate 1 (left block)): 19339 | Raw data: analyte peak area, T=0 ([1]; replicate 2 (right block)): 26048 | Raw data: analyte peak area, T=5 ([1]; replicate 1 (left block)): 22550 | Raw data: analyte peak area, T=5 ([1]; replicate 2 (right block)): 23821 | Raw data: analyte peak area, T=10 ([1]; replicate 1 (left block)): 21659 | Raw data: analyte peak area, T=10 ([1]; replicate 2 (right block)): 23305 | Raw data: analyte peak area, T=20 ([1]; replicate 1 (left block)): 19803 | Raw data: analyte peak area, T=20 ([1]; replicate 2 (right block)): 17879 | Raw data: analyte peak area, T=30 ([1]; replicate 1 (left block)): 17561 | Raw data: analyte peak area, T=30 ([1]; replicate 2 (right block)): 17623 | Raw data: analyte peak area, T=60 ([1]; replicate 1 (left block)): 19289 | Raw data: analyte peak area, T=60 ([1]; replicate 2 (right block)): 20334 | Raw data: analyte peak area, T=60 NCF ([2]; replicate 1 (left block)): 21227 | Raw data: analyte peak area, T=60 NCF ([2]; replicate 2 (right block)): 25265
